Results reported in US20250368678A1, “19-NOR-C3,3-DISUBSTITUTED C21-AZACYCLO-S[…] AND METHOD FOR USING SAME” (SHANDONG LUYE PHARMACEUTICAL CO., LTD., priority 2022, published 2025).
Some of these results come from one statement about several compounds together. For at least one compound, name, drawing or mass did not settle the structure.

Amino acid sequences for entries named in this document (tags omitted). A change or cut given only in a name is not applied to a line headed by its entry. Residues count along the entry.
UniProt P28472, 26-473: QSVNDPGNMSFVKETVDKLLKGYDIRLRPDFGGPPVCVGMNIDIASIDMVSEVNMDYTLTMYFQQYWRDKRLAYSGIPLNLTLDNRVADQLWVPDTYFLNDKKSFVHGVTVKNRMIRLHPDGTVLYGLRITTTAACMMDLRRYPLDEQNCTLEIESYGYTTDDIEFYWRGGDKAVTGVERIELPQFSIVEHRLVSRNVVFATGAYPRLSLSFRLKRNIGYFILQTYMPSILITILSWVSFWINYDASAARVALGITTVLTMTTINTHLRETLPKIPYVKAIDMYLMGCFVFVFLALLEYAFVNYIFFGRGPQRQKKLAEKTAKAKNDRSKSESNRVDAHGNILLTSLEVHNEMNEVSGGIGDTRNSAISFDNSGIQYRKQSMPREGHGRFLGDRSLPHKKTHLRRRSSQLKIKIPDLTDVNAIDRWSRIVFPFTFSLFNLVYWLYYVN
UniProt P48169, 36-554: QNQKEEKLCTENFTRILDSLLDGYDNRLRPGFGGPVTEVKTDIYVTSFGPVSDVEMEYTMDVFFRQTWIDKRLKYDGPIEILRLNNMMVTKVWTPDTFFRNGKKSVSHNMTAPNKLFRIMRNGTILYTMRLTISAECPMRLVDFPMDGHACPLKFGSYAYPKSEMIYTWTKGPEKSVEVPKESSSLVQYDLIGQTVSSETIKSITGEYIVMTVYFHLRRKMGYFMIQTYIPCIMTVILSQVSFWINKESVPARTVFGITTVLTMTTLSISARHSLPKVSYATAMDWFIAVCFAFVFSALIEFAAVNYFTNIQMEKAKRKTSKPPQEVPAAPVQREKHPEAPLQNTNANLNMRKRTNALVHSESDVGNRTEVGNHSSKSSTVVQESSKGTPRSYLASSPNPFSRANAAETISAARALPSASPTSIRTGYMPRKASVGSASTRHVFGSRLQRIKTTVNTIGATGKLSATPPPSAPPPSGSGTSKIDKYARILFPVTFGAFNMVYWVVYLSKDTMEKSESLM
UniProt P14867, 28-456: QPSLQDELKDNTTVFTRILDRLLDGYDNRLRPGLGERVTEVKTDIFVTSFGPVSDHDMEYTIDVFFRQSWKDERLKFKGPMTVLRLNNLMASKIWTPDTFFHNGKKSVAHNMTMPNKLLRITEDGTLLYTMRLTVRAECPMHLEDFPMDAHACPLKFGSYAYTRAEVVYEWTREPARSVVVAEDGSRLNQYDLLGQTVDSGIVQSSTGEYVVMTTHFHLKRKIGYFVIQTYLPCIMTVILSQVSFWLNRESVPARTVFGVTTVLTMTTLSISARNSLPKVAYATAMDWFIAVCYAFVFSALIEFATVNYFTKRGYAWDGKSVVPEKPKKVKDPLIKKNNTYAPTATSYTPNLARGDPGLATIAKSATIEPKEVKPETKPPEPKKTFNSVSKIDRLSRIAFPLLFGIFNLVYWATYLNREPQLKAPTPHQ
UniProt P47870, 25-512 limits assumed: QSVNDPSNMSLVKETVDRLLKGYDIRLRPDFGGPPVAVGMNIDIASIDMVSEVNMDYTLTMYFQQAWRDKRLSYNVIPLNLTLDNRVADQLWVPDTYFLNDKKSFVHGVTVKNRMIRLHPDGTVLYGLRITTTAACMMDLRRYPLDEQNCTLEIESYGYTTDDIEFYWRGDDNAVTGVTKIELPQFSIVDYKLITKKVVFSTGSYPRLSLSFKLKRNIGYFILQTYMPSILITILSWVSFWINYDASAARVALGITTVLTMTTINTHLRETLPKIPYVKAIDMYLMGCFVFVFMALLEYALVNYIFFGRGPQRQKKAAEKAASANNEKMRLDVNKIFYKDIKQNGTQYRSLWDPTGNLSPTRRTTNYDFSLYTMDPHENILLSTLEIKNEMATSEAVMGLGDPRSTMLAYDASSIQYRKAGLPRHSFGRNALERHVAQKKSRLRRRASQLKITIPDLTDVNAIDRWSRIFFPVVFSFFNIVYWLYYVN

Legend:
[1] = target: T1, α4β3δ GABA receptors (α4β3δ-HEK-FlpIn-TRex stable cell strain) (Homo sapiens, UniProt P28472+P48169); assay: Whole-cell patch clamp, extrasynaptic functional activity (positive allosteric regulation of GABA-induced current); type: cell-based
T1 construct: expressed in transfected cells
Procedure: (§1) The α4β3δ-HEK-FlpIn-TRex stable cell strain was cultured in DMEM+10% FBS complete culture medium, with the selective antibiotics being 10 μg/mL Blasticidin, 100 µg/mL Zeocin, 100 µg/mL Hygromycin, and 0.2 μg/mL Puromycin. The α1β2γ2-CHO-TRex stable cell strain was cultured in DMEM/F12+10% FBS complete culture medium, with the selective antibiotics being 10 μg/mL Blasticidin, 100 μg/mL Zeocin, 300 μg/mL Hygromycin, and […] Puromycin.
(§2) The day before the patch clamp experiment, cells were seeded onto 12 mm polylysine-coated coverslips and then cultured in 35 mm culture dishes, and tetracycline ([…]) was added to induce the expression of GABA receptors. The extracellular fluid had the following composition (in mM): 140 NaCl, 3 KCl, 1.5 MgCl2, 2 CaCl2, 10 HEPES, and 10 Glucose. After thorough mixing, NaOH was added to adjust the pH to 7.4, and sucrose was added to adjust the osmotic pressure to 300-320 mOsm. The fluid was stored at 4° C. The electrode internal solution had the following composition (in mM): 145 KCl, 1 MgCl2, 5 EGTA, 10 HEPES, and 5 MgATP. After thorough mixing, KOH was added to adjust the pH to 7.3, and sucrose was added to adjust the osmotic pressure to 290-300 mOsm. The solution was filtered through a […] before use.
(§3) Whole-cell patch clamp recording was mainly employed in this experiment. The membrane potential was clamped at −60 mV, and receptors were activated using GABA at an EC10-20 concentration ([…]). The test compounds were dissolved in 0.1% DMSO, and perfusion was performed for 30 s prior to GABA stimulation. Finally, the positive allosteric regulating effects of the test compounds on α1β2γ2 or α4β3δ were determined.
(§4) The experimental result for each concentration was expressed as a fold increase in the GABA-induced current caused by the compound. […] At least 5 concentrations are tested to obtain a complete EC50 curve and EC50 values. All experiments were repeated on no less than 3 cells, and data processing was completed using GraphPad prism software. The dose-response curves were fitted using the Hill equation, and the half-maximal activating concentration EC50 and Emax were finally obtained.

[2] = target: T2, α1β2γ2 GABA receptors (α1β2γ2-CHO-TRex stable cell strain) (Homo sapiens, UniProt P14867+P47870); assay: Whole-cell patch clamp, intrasynaptic functional activity (positive allosteric regulation of GABA-induced current); type: cell-based
T2 construct: expressed in transfected cells
Procedure: as §1, §2, §3, §4

SMILES	extrasynaptic functional activity (in words) [1]	intrasynaptic functional activity (in words) [2]
C[C@@]1(O)CC[C@H]2[C@H](CC[C@@H]3[C@@H]2CC[C@]2(C)[C@@H](C(=O)Cn4cnn(C5CCCC5)c4=O)CC[C@@H]32)C1 [Compound 29]	relatively good	relatively good
C[C@@]1(O)CC[C@H]2[C@H](CC[C@@H]3[C@@H]2CC[C@]2(C)[C@@H](C(=O)Cn4cnn(C5CCCCC5)c4=O)CC[C@@H]32)C1 [Compound 30]	relatively good	relatively good
COCCn1ncn(CC(=O)[C@H]2CC[C@H]3[C@@H]4CC[C@@H]5C[C@](C)(O)CC[C@@H]5[C@H]4CC[C@]23C)c1=O [Compound 31]	relatively good	relatively good
C[C@@]1(O)CC[C@H]2[C@H](CC[C@@H]3[C@@H]2CC[C@]2(C)[C@@H](C(=O)Cn4cnn(-c5nccs5)c4=O)CC[C@@H]32)C1 [Compound 32]	relatively good	relatively good
C[C@@]1(O)CC[C@@]2(C)[C@@H](CC[C@@H]3[C@@H]2CC[C@]2(C)[C@@H](C(=O)Cn4cnn(-c5cccc(F)c5)c4=O)CC[C@@H]32)C1 [Compound 33]	relatively good	relatively good
C[C@@]1(O)CC[C@H]2[C@H](CC[C@@H]3[C@@H]2CC[C@]2(C)[C@@H](C(=O)Cn4cnn(-c5cccc(C#N)c5)c4=O)CC[C@@H]32)C1 [Compound 34]	relatively good	relatively good
C[C@@]1(O)CC[C@H]2[C@H](CC[C@@H]3[C@@H]2CC[C@]2(C)[C@@H](C(=O)Cn4cnn(-c5cc(F)ccn5)c4=O)CC[C@@H]32)C1 [Compound 35]	relatively good	relatively good
Cc1cc(-n2ncn(CC(=O)[C@H]3CC[C@H]4[C@@H]5CC[C@@H]6C[C@](C)(O)CC[C@@H]6[C@H]5CC[C@]34C)c2=O)ccn1 [Compound 36]	relatively good	relatively good
C[C@@]1(O)CC[C@H]2[C@H](CC[C@@H]3[C@@H]2CC[C@]2(C)[C@@H](C(=O)Cn4cnn(-c5ccnc(C(F)F)c5)c4=O)CC[C@@H]32)C1 [Compound 37]	relatively good	relatively good
C[C@@]1(O)CC[C@H]2[C@H](CC[C@@H]3[C@@H]2CC[C@]2(C)[C@@H](C(=O)Cn4cnn(-c5ccnc(OC(F)(F)F)c5)c4=O)CC[C@@H]32)C1 [Compound 38]	relatively good	relatively good
C[C@@]1(O)CC[C@H]2[C@H](CC[C@@H]3[C@@H]2CC[C@]2(C)[C@@H](C(=O)Cn4cnn(-c5ccnc(OCC(F)(F)F)c5)c4=O)CC[C@@H]32)C1 [Compound 39]	relatively good	relatively good
Cc1cc(-n2ncn(CC(=O)[C@H]3CC[C@H]4[C@@H]5CC[C@@H]6C[C@](C)(O)CC[C@@H]6[C@H]5CC[C@]34C)c2=O)cc(C)n1 [Compound 40]	relatively good	relatively good
C[C@@]1(O)CC[C@H]2[C@H](CC[C@@H]3[C@@H]2CC[C@]2(C)[C@@H](C(=O)Cn4cnn(-c5cc(F)nc(F)c5)c4=O)CC[C@@H]32)C1 [Compound 41]	relatively good	relatively good
C[C@@]1(O)CC[C@@]2(C)[C@@H](CC[C@@H]3[C@@H]2CC[C@]2(C)[C@@H](C(=O)Cn4cnn(-c5ccnc(F)c5)c4=O)CC[C@@H]32)C1 [Compound 42]	relatively good	relatively good
C[C@@]1(O)CC[C@H]2[C@H](CC[C@@H]3[C@@H]2CC[C@]2(C)[C@@H](C(=O)Cn4cnn(CCOC(F)(F)F)c4=O)CC[C@@H]32)C1 [Compound 43]	relatively good	relatively good
C[C@@]1(O)CC[C@H]2[C@H](CC[C@@H]3[C@@H]2CC[C@]2(C)[C@@H](C(=O)Cn4cnn(-c5cc(F)cc(C#N)c5)c4=O)CC[C@@H]32)C1 [Compound 44]	relatively good	relatively good
CC(C)(C)n1ncn(CC(=O)[C@H]2CC[C@H]3[C@@H]4CC[C@@H]5C[C@](C)(O)CC[C@@H]5[C@H]4CC[C@]23C)c1=O [Compound 45]	relatively good	relatively good
